Test results as given in patent US7655756B2 (Johnson & Johnson Pharmaceutical Research & Development, LLC, priority 2005, dated 2010).
These are yes or no findings as the source states them, for the method shown. Some binding calls cover weakened binding; strength is not graded here. Sequences can lack the tags named with a protein.

Tests used:
[1] = biological target: 6His-tagged human ERRγ ligand binding domain (LBD) (229-458) (human) (UniProt P62508); experiment: X-ray crystal structures, space group P41212, one molecule in the asymmetric unit
[2] = biological target: 6His-tagged human ERRγ ligand binding domain (LBD) (229-458) (human) (UniProt P62508); experiment: size exclusion chromatography and dynamic light scattering, 4 µM protein and higher (self-association)

binding [1]: binds
binding [2]: binds
B1: 6His-tagged human ERRγ ligand binding domain (LBD) (229-458) (receptor)
chain: HHHHHHPAKKPYNKIVSHLLVAEPEKIYAMPDPTVPDSDIKALTTLCDLADRELVVIIGWAKHIPGFSTLSLADQMSLLQSAWMEILILGVVYRSLSFEDELVYADDYIMDEDQSKLAGLLDLNNAILQLVKKYKSMKLEKEEFVTLKAIALANSDSMHIEDVEAVQKLQDVLHEALQDYEAGQHMEDPRRAGKMLMTLPLLRQTSTKAVQHFYNIKLEGKVPMHKLFLEMLEAKV
